Test results from patent US20250213705A1, “PSMA TARGETING LIGANDS AND METHODS OF USE” (Bright Peak Therapeutics AG, priority 2023, published 2025).
Structures were worked out from names or drawings and are uncertain.

The chains behind the UniProt entries cited, without tags or fusion partners.
UniProt Q04609, whole entry: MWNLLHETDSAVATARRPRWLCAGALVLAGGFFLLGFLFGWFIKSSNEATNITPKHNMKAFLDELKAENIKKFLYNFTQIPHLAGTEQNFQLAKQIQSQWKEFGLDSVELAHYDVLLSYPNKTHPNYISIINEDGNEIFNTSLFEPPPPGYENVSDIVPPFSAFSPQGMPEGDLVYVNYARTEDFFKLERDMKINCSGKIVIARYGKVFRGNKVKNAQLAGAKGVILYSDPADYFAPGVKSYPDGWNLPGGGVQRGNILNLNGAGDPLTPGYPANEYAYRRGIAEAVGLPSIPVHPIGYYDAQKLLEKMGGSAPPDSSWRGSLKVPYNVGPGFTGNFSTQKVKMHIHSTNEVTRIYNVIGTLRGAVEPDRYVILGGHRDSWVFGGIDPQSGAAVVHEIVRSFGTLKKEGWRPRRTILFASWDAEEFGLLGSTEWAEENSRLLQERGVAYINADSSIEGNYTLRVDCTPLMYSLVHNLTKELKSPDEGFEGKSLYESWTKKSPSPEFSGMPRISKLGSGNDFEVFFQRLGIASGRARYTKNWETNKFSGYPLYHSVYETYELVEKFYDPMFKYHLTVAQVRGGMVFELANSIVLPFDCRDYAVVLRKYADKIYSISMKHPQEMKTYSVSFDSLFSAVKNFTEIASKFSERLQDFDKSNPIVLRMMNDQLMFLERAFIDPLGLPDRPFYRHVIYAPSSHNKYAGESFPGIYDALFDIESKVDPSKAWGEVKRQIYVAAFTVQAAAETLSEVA

What was measured:
human FOLH1 = human FOLH1 (Homo sapiens (Human), UniProt Q04609); assay: SPR analysis of binding kinetics to biotinylated FOLH1 (Biacore 8K); conditions: ligand PSMA
[1] = biological target: Recombinant Human PSMA/FOLH1 Protein (Homo sapiens (Human), UniProt Q04609); assay: Inhibition assay (Amplex Red glutamic acid/glutamate oxidase, NAAG substrate); assay type: biochemical; conditions: Target PSMA, average of N replicates

CC(=O)NCCOCCOCCOCCC(=O)N[C@@H](Cc1cccc(C(=O)O)c1)C(=O)NCCCC(=O)N[C@@H](Cc1ccc2ccccc2c1)C(=O)NCCCC[C@H](NC(=O)N[C@@H](CCC(=O)O)C(=O)O)C(=O)O
Kon (human FOLH1; association rate): 103000 1.ms
Koff (human FOLH1; dissociation rate): 0.000282 s⁻¹
Kd (human FOLH1; kinetic 1:1 binding model): 2.75 nM
IC50 ([1]; PSMA 5 nM, NAAG 40 μM): 7.94 nM
Ki ([1]; calculated based on Cheng-Prusoff equation): 0.0568 nM
